# Data from PubChem BioAssay AID758 (NMMLSC, 2007).
# About 110 (0.058%) of roughly 190,000 compounds were called active. Inconclusive means that the source gave no clear call. Such entries were picked first, then a sample of the others.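 How the source made its calls: active means fluorescent GTP binding to Rab7 beads changed by at least 20 points from the 100% baseline, either direction, mostly lower; inconclusive means compound itself probably fluorescent, or too few beads counted; inactive means the rest.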
# Tested on: Rab7 GTPase wild type (dog), Bodipy-FL-GTP binding
# Assay: modulators of GTP binding to Rab7, primary screen, biochemical, wildtype, multiplex bead flow cytometry (AID 758);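 further: median green fluorescence of bound Bodipy-FL-GTP per Rab7 bead population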
# Conditions: GST-Rab7 beads, fluorescent GTP binding, at 10 µM, actives lie on both sides, untreated = 100%, excess cold GTP = 0%
row,SMILES,GTP binding activity (percent of control)
1,CCN(CCn1cccn1)Cc1cn[nH]c1-c1ccc(OC)cc1F,inactive: 97%
2,CCS(=O)(=O)Nc1cccc(-c2ccc3nnc(C)n3n2)c1,inconclusive: 104%
3,FC(F)(F)c1cc(-c2ccc(Cl)cc2)nc2ncnn12,inconclusive: 104%
4,c1ccc(C(c2ccccc2)N2CCN(c3nc4ccccc4n4cnnc34)CC2)cc1,inconclusive: 94%
5,NC(=O)c1ccccc1NC(=O)c1ccccc1F,inactive: 99%
6,COc1ccc2c(c1)c1ncn(Cc3ccco3)c(=O)c1n2C,inconclusive: 94%
7,CCC(=O)NC(C)c1nc2ccccc2n1C (stereo not drawn),inconclusive: 101%
8,CCC(C)NS(=O)(=O)c1ccc(OCC(=O)NCc2ccccn2)cc1 (stereo not drawn),inconclusive: 97%
9,Cc1ccccc1NC(=O)c1nn(-c2ccc(F)c(F)c2)ccc1=O,inactive: 95%
10,Clc1ccc(-c2ccc(/C=N/Nc3nncc(-c4ccccc4)n3)o2)cc1,inactive: 92%
11,CC(C)(C)NC(=O)Cn1nnc(-c2ccccc2Cl)n1,inconclusive: 102%
12,O=C(C#Cc1ccccc1)c1ccc([N+](=O)[O-])cc1,inactive: 94%
13,Cc1ccc(CCNC(=O)CN(C)S(=O)(=O)c2cnc[nH]2)cc1,inconclusive: 102%
14,O=C1CSC(c2ccccn2)N1c1ccc(F)cc1F (stereo not drawn),inactive: 98%
15,CC(=O)c1cn(CC(=O)NCC2CCCO2)c2ccccc12 (stereo not drawn),inconclusive: 96%
16,COc1cc(/C=N/Nc2nnc3c(n2)[nH]c2ccccc23)ccc1O,inactive: 85%
17,COc1ccc(-n2c(C)cc(C(=O)Cn3nc(C(=O)O)c4ccccc4c3=O)c2C)cc1,inactive: 89%
18,CCN(CC)C(=O)c1ccccc1NC(=O)c1ccccc1C,inactive: 108%
19,COc1ccc(C2=Nc3cccc4cccc(c34)N2)cc1,inconclusive: 102%
20,CCCCCSc1nc2c(cnn2-c2ccccc2)c(=O)[nH]1,inconclusive: 93%
21,COc1ccc(C(=O)Nn2c(SCC(=O)c3ccccc3)nc3ccccc3c2=O)cc1,inconclusive: 81%
22,Brc1ccc(/C=N/Nc2ccc3ccccc3n2)cc1,inconclusive: 89%
23,Cc1cccc(NC(=O)NC(=O)c2ccccc2)n1,inconclusive: 96%
24,COc1cc(C(=O)NCc2nnc(SCC(=O)N3CCCCC3)o2)cc(OC)c1OC,inconclusive: 102%

row,SMILES,GTP binding activity (percent of control)
1,Fc1cc(Br)ccc1NC(=S)Nc1cccnc1,inactive: 104%
2,Fc1ccc(NC(=S)Nc2ccccc2N2CCOCC2)cc1Cl,inactive: 92%
3,O=C(NC1(C(F)(F)F)NC(=O)N(Cc2cccnc2)C1=O)c1cccs1 (stereo not drawn),inconclusive: 106%
4,O=c1c2ccccc2nc2c3ccccc3c(NCCN3CCOCC3)nn12,inconclusive: 84%
5,CCCNS(=O)(=O)/C=C/c1ccccc1,inconclusive: 97%
6,O=C(O)c1cn(C2CC2)c2cc(N3CCN(S(=O)(=O)c4ccc5c(c4)OCCO5)CC3)c(F)cc2c1=O,inactive: 102%
7,Cc1cc(C(=O)Nc2cccc(S(=O)(=O)N3CCCCC3)c2)c2ccccc2n1,inactive: 108%
8,COC(=O)c1cccc(Nc2cc(C)nc(-c3ccccc3O)n2)c1,inconclusive: 80%
9,O=C(O)CCc1ccc(-c2ccccc2)n1NC(=O)c1ccco1,inconclusive: 105%
10,Cc1cccc(Cc2c(C)nc3nc(SCC(=O)O)nn3c2C)c1,inactive: 89%
11,CCn1c(COc2cccc(C)c2)nnc1SCC(=O)N1CCCC1,inconclusive: 102%
12,Cc1cc(NC(=O)C2=C(O)c3ccccc3S(=O)(=O)N2C)no1,inactive: 96%
13,O=C(Cn1ccc([N+](=O)[O-])n1)Nc1ccccn1,inactive: 108%
14,Cc1cc(N2CCCC2=O)cc(C)c1S(N)(=O)=O,inconclusive: 98%
15,COc1cccc(N2CCN(C(=O)c3cccn4c(=O)c5c(C)c(C)sc5nc34)CC2)c1,inconclusive: 92%
16,O=C(COC(=O)Cc1ccc(Cl)cc1Cl)NCCC1=CCCCC1,inactive: 95%
17,O=Cc1ccc(Sc2ncccn2)o1,inactive: 96%
18,CCN(CC)c1ccc(/C=N/OCC(=O)Nc2cccc(C)c2)cc1,inconclusive: 135%
19,CCCCN1C2=NCCCN2c2cc(C)c(C)cc21,inconclusive: 96%
20,CCc1ccc(CN(C)C(=O)CCc2nnc(COc3ccccc3)o2)cc1,inactive: 97%
21,Cc1cc(S(=O)(=O)n2ccnc2)c(Cl)cc1Cl,inactive: 103%
22,O=C(CNC(=O)c1ccco1)OCC(=O)c1ccc(Cl)cc1Cl,inconclusive: 95%
23,Cc1ccc(C(=O)c2ccccc2C(=O)OCC(=O)NC(C)(C)C)cc1,inactive: 94%
24,CCOC(=O)c1[nH]c2ccc(Br)cc2c1NC(=O)CCN1CCCC(C)(C)C1,inactive: 100%

# Structures from the list above that contain a CF3 group (2):
row,SMILES,GTP binding activity (percent of control)
3,FC(F)(F)c1cc(-c2ccc(Cl)cc2)nc2ncnn12,inconclusive: 104%
3,O=C(NC1(C(F)(F)F)NC(=O)N(Cc2cccnc2)C1=O)c1cccs1 (stereo not drawn),inconclusive: 106%
